Laboratory results: PubChem BioAssay AID504793 (Drosophila RNAi Screening Center, 2011)
Aim: 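Knock-downs allowing continued mitosis even though DNA is damaged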 (primary screen). Cell system: Drosophila S2R+ cells. Reagents: long dsRNA against Drosophila genes, about 0.25 µg dsRNA per well. Duration: 4 days of dsRNA, then 4 hours of drug before read-out. Conditions: doxorubicin 0.5 µM for 4 hours to cause double-strand breaks, in cells also given a low, harmless dose of dsRNA against nbs to sensitise the assay. Measurement: 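Mitotic index as the number of phospho-histone H3-positive cells in each well following doxorubicin, given as raw counts without normalisation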. Scale: mitotic cells: higher = more cells in mitosis, weaker G2 arrest. Hit rule: 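a call needs confirmation in secondary tests, with other dsRNAs and a check of mitotic timing without damage, not just a high primary count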. Calls: active = confirmed in follow-up tests; inactive = not confirmed.
In all, the deposit lists about 23,000 reagents; this is a random part of those that have a named target and a result. Over the whole deposit, 62 (0.27%) are marked active. 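Calls come from follow-up tests whose scores are not deposited, so confirmed genes may have low counts here; counts are not normalised per plate.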 Raw values vary from plate to plate and are shown uncorrected. Entries without a mark were called inactive. Reagents against one gene are numbered here. A plus sign joins genes that one reagent is predicted to hit.

no.	Target gene	reagent no.	mitotic cells, replicate 1
1	Syx18 (GeneID 42933)	1	13
2	CG10064 (GeneID 38761)	1	5
3	CG3556 (GeneID 31380)	1	3
4	CG3556 (GeneID 31380)	2	3
5	Ir25a (GeneID 33683)	1	8
6	Ir25a (GeneID 33683)	2	5
7	Tpr2 (GeneID 34984)	1	1
8	fln (GeneID 40185)	1	10
9	fln (GeneID 40185)	2	6
10	CG15570 (GeneID 31366)	1	13
11	CG15649 (GeneID 37371)	1	7
12	CG15649 (GeneID 37371)	2	6
13	CG14968 (GeneID 38406)	1	4
14	CG14968 (GeneID 38406)	2	7
15	Ttc26 (GeneID 41905)	1	7
16	Ttc26 (GeneID 41905)	2	5
17	alpha-Est8 (GeneID 40899)	1	6
18	CG33262 (GeneID 2768975)	1	11
19	CG18179 (GeneID 39124)	1	4
20	CG18179 (GeneID 39124)	2	1
21	Lrt (GeneID 37342)	1	4
22	Lrt (GeneID 37342)	2	7
23	CG10559 (GeneID 43063)	1	21
24	CG10559 (GeneID 43063)	2	4
25	edin (GeneID 317900)	1	34
26	Mur29B (GeneID 319014)	1	3
27	Mur29B (GeneID 319014)	2	7
28	Con (GeneID 38590)	1	5
29	CG4269 (GeneID 37578)	1	7
30	mtsh (GeneID 34141)	1	1
31	CG3408 (GeneID 39107)	1	5
32	CG2767 (GeneID 40946)	1	3
33	CG2767 (GeneID 40946)	2	7
34	CG42749 (GeneID 31438)	1	10
35	CG42749 (GeneID 31438)	2	8
36	CG42749 (GeneID 31438)	3	3
37	CG7600 (GeneID 39267)	1	8
38	CG7600 (GeneID 39267)	2	6
39	BigH1 (GeneID 41780)	1	9
40	BigH1 (GeneID 41780)	2	4
41	Sp212 (GeneID 2768666)	1	6
42	Sp212 (GeneID 2768666)	2	4
43	CG32631 (GeneID 32311)	1	9
44	CG32631 (GeneID 32311)	2	3
45	CG43338 (GeneID 35117)	1	4
46	St1 (GeneID 37742)	1	13
47	St1 (GeneID 37742)	2	7
48	Gart (GeneID 33986)	1	3
49	Gart (GeneID 33986)	2	5
50	nol (GeneID 64867)	1	7
51	nol (GeneID 64867)	2	4
52	DNAlig3 (GeneID 41518)	1	6
53	DNAlig3 (GeneID 41518)	2	3
54	RPA1 (GeneID 40972)	1	44 (active)
55	Cdc42 (GeneID 32981)	1	4
56	Cdc42 (GeneID 32981)	2	8
57	mip130 (GeneID 31153)	1	15
58	mip130 (GeneID 31153)	2	19
59	Bgb (GeneID 38198)	1	7
60	Bgb (GeneID 38198)	2	2
61	Sec71 (GeneID 34785)	1	3
62	RfC38 (GeneID 34550)	1	9
63	Grx1 (GeneID 40053)	1	5
64	ppk13 (GeneID 3346226)	1	8
65	CG32117 (GeneID 317864)	1	6
66	Spf30 (GeneID 7354399)	1	1
67	lncRNA:CR32657 (GeneID 3772397)	1	15
68	lncRNA:CR32657 (GeneID 3772397)	2	10
69	CysRS-m (GeneID 36563)	1	10
70	Septin1 (GeneID 33114)	1	7
71	ple (GeneID 38746)	1	2
72	CG7707 (GeneID 39923)	1	3

Quoted from above (14 entries):
no.	Target gene	reagent no.	mitotic cells, replicate 1
18	CG33262 (GeneID 2768975)	1	11
19	CG18179 (GeneID 39124)	1	4
20	CG18179 (GeneID 39124)	2	1
21	Lrt (GeneID 37342)	1	4
22	Lrt (GeneID 37342)	2	7
23	CG10559 (GeneID 43063)	1	21
24	CG10559 (GeneID 43063)	2	4
25	edin (GeneID 317900)	1	34
26	Mur29B (GeneID 319014)	1	3
27	Mur29B (GeneID 319014)	2	7
28	Con (GeneID 38590)	1	5
29	CG4269 (GeneID 37578)	1	7
30	mtsh (GeneID 34141)	1	1
31	CG3408 (GeneID 39107)	1	5

Next records follow:
no.	Target gene	reagent no.	mitotic cells, replicate 1
73	rdo (GeneID 35077)	1	2
74	rdo (GeneID 35077)	2	3
75	CG14380 (GeneID 41621)	1	9
76	Polr2J (GeneID 35043)	1	2
77	Polr2J (GeneID 35043)	2	17
78	Cp7Fc (GeneID 31786)	1	2
79	Cp7Fc (GeneID 31786)	2	4
80	Atg10 + CG18853 + CG12822	1	16
81	fd96Cb (GeneID 43011)	1	8
82	fd96Cb (GeneID 43011)	2	7
83	CG4829 (GeneID 32672)	1	5
84	Taf13 (GeneID 35297)	1	12
85	swa (GeneID 31580)	1	5
86	swa (GeneID 31580)	2	5
87	CG33460 (GeneID 3885588)	1	2
88	Spt7 (GeneID 32766)	1	5
89	Spt7 (GeneID 32766)	2	3
90	Mms19 (GeneID 40626)	1	2
91	Mms19 (GeneID 40626)	2	8
92	IFT54 (GeneID 41739)	1	5
93	Ote (GeneID 37090)	1	2
94	siz (GeneID 40327)	1	5
95	siz (GeneID 40327)	2	4
96	siz (GeneID 40327)	3	8
97	GEFmeso (GeneID 37134)	1	7
98	GEFmeso (GeneID 37134)	2	1
99	GEFmeso (GeneID 37134)	3	24
100	CG12539 (GeneID 32412)	1	9
101	CG12539 (GeneID 32412)	2	9
102	Cyp40 (GeneID 39121)	1	3
103	Cyp40 (GeneID 39121)	2	4
104	CG16953 (GeneID 42437)	1	5
105	CG7166 (GeneID 40401)	1	4
106	CG7290 (GeneID 40211)	1	8
107	CG7290 (GeneID 40211)	2	6
108	CG7272 (GeneID 39670)	1	5
109	sktl (GeneID 37356)	1	8
110	Zip99C (GeneID 43533)	1	9
